The text below walks through data of article PMC12040169 (PLOS Biology, 2025).

The series in a line: in vitro. Particulars: human, hela cells, % viability.

By viability is commonly meant a read-out of living cells in per cent, often relative to untreated cells. A higher viability goes with better survival.

Consider `CN1C2CC(OC(=O)C(CO)c3ccccc3)CC1C1OC12` (centres unmarked) [CBK261507C], for which the viability at 28.5 h, 10 µM amounted to 97.7%. The result for `COc1ccc2cc(C(C)C(=O)O)ccc2c1` (centres unmarked) [CBK015987] reads 91%.
